Test results from US20210030883A1.
Results are given in words; binding and its absence hold for the method and conditions named. Binding seen in cells or lysates may run through a third protein. Some entries that bind do so weakly or less than the wild type.

Chains of the proteins cited; added tags and fusions are not shown. Residues count along the entry.
UniProt Q9ERK7: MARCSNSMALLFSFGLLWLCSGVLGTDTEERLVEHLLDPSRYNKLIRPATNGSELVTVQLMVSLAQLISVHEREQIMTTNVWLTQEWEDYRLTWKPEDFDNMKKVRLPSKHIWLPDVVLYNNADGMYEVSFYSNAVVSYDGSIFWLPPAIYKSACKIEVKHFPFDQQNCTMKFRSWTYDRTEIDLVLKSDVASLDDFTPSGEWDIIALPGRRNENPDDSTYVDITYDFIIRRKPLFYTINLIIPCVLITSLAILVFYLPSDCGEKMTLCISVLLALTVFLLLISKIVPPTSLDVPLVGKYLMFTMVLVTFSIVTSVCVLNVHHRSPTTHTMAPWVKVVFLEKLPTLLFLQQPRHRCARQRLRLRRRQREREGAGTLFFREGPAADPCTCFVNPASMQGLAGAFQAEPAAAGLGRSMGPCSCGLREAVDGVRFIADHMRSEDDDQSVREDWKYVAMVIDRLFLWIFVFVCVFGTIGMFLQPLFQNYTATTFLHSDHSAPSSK
UniProt O70174, residues 31-629: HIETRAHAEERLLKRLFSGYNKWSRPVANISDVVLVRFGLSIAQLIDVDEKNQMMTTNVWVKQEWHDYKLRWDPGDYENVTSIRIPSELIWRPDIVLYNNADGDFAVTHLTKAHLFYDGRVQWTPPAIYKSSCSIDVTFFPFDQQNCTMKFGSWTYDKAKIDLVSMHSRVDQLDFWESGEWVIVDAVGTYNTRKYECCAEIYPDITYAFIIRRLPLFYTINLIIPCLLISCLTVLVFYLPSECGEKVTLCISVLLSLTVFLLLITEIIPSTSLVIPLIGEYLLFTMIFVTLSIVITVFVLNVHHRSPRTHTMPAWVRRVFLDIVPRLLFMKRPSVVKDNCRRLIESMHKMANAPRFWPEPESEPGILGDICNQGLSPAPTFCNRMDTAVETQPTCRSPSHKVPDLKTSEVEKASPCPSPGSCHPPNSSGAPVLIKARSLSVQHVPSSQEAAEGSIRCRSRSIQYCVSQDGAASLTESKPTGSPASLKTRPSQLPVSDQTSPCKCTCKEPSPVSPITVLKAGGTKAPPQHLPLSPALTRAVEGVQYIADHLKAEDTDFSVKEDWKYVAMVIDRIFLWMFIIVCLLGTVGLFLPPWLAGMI

Target: nicotinic acetylcholine receptor subunit β2-cyan fluorescent protein (mouse) (UniProt Q9ERK7)
Assay: co-immunoprecipitation from stable HEK293 cell lines

With “nicotinic acetylcholine receptor subunit α4-yellow fluorescent protein (from UniProt O70174 31-629)” the binding was “binds”.
